Laboratory results published in patent publication EP4732841A1, “FOAM SCLEROSANT COMPOSITION, AND PREPARATION METHOD THEREFOR AND USE THEREOF” (Jenkem Technology Co., Ltd. (Beijing), priority 2023, dated 2025).
At least one structure is not confirmed: it was looked up by name or label, or the drawing left a doubt.

Legend:
[1] = Foam stability of polidocanol with single molecular weight (Tessari method); format: physicochemical
Procedure: Samples of polidocanol with a single molecular weight (DD-PEG8-OH, DD-PEG9-OH, and DD-PEG10-OH prepared in Example 1) and a control (polidocanol in a mixture state containing different molecular weights, purchased from Siegfried Hameln GmbH, Germany, batch number OK13103) were separately weighed and prepared into 1% solutions using a 4% solution of ethanol in PBS. The polidocanol was foamed using the Tessari method, i.e., two 2.5 mL syringes were connected via a three-way tube and rapidly pushed and pulled back and forth at a gas-to-liquid ratio of 3:1 until foam formed. All foam was collected into one syringe, the volume was brought to 2 mL, and the foam state was observed while standing. The following parameters were recorded: foam drainage time, foam halflife time, and foam coalescence time.

[2] = Effect of sodium hyaluronate on foam stability of polidocanol with single molecular weight; format: physicochemical; conditions: 0.5 mL mixed solution + 1.5 mL air, aspirated 40 times; sodium hyaluronate at different concentrations
[3] = 1% solution in 4% solution of ethanol in PBS, Tessari method, gas-to-liquid ratio 3:1

**Q.** What does the source list for `CCCCCCCCCCCCOCCOCCOCCOCCOCCOCCOCCOCCOCCO` [P9]?
**A.** Foam coalescence time [1, 3]: 19 min; Foam drainage time [1, 3]: 3 s; Foam coalescence time ([1]; 1% solution in 4% solution of ethanol in PBS, Tessari method, gas-to-liquid ratio 3:1, listed as P9 (1%)): 19 m; foam formed after thorough mixing with air ([1]; 1% solutions mixed with air at a volume ratio of 1:3): formed homogeneous foam; Foam coalescence time [2]: 19 min; Foam drainage time [2]: 3 s
